Assay results: ChEMBL document CHEMBL4808211, “Exploration and Biological Evaluation of Basic Heteromonocyclic Propanamide Derivatives as SARDs for the Treatment of Enzalutamide-Resistant Prostate Cancer” (J Med Chem, 2021)

How the values were obtained:
[1] = mouse, microsomes, 1 h
Androgen receptor = target: T1, Androgen receptor (Rattus norvegicus, UniProt P15207)
T1 sequence (P15207 whole entry): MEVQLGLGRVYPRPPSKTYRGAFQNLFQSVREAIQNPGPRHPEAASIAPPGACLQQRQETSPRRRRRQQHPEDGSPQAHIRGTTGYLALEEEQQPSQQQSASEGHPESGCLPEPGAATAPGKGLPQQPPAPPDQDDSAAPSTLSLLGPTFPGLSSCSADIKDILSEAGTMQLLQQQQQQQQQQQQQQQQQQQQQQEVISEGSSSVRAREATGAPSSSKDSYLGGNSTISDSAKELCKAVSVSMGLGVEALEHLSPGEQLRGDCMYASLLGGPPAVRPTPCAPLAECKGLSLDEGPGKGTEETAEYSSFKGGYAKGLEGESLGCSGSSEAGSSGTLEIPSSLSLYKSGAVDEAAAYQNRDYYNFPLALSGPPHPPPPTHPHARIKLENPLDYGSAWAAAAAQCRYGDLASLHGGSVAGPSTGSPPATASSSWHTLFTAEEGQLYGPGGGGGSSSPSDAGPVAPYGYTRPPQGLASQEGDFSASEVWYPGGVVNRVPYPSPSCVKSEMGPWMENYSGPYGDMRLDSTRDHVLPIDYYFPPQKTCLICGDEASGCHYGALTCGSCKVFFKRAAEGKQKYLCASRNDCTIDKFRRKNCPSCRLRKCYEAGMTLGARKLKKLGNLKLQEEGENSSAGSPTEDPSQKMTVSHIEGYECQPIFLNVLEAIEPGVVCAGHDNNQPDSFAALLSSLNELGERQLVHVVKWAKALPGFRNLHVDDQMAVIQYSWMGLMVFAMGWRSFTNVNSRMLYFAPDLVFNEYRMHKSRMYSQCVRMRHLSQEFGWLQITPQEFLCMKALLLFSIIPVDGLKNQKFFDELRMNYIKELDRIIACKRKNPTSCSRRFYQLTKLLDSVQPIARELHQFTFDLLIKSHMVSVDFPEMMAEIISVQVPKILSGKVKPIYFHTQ

in vivo [2] = details: C57BL/6J, mouse, po, 30 mg/kg
in vivo [3] = details: C57BL/6J, mouse, po, 30 mg/kg; remark: listed apart in the source

Work on `C[C@](O)(Cn1cc(F)cn1)C(=O)Nc1ccc(C#N)c(C(F)(F)F)c1` yielded a CLH [1] of 0.89 mL/min.
Work on `C[C@](O)(CNc1ccc(C#N)c(C(F)(F)F)c1)C(=O)Nc1ccc(C#N)c(C(F)(F)F)c1` yielded a Ki (Androgen receptor) greater than 10 µM.
In the case of `C[C@](O)(CN1CCCC1)C(=O)Nc1ccc(C#N)c(Cl)c1`, the Ki (Androgen receptor) is reported as greater than 10 µM.
`C[C@](O)(Cn1cncn1)C(=O)Nc1ccc(C#N)c(C(F)(F)F)c1` showed a Ki (Androgen receptor) greater than 10 µM.
`C[C@](O)(Cn1cnc(C(F)(F)F)n1)C(=O)Nc1ccc(C#N)c(C(F)(F)F)c1` showed a Ki (Androgen receptor) greater than 10 µM.
With `C[C@](O)(Cn1cc(-c2ccc(F)cc2)nn1)C(=O)Nc1ccc(C#N)c(C(F)(F)F)c1` the Ki (Androgen receptor) was greater than 10 µM, the concentration at 6 h (in vivo [2]) was 453 nM and the concentration at 24 h (in vivo [3]) was 332 nM.
In the case of `C[C@](O)(Cn1cncc1Br)C(=O)Nc1ccc(C#N)c(C(F)(F)F)c1`, the Ki (Androgen receptor) is reported as greater than 10 µM.
For `C[C@](O)(Cn1ccnc1)C(=O)Nc1ccc(C#N)c(Cl)c1`, the Ki (Androgen receptor) was greater than 10 µM.
For `C[C@](O)(CNc1nc[nH]n1)C(=O)Nc1ccc(C#N)c(C(F)(F)F)c1`, the Ki (Androgen receptor) was greater than 10 µM.
